## Assay results

From PubChem BioAssay record AID1159506 (NCATS, 2015).

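Genome-wide siRNA knockdown in TC32 Ewing sarcoma cells, comparing luciferase light from an NR0B1-promoter reporter with a CMV-promoter reporter 48 hours after transfection.
Each siRNA was applied at 20 nM.
A z-score of the log NR0B1-over-CMV signal, less the median of siRNAs with the same seed; more negative means a stronger specific loss of the NR0B1 reporter.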

This is part of the screen; most of the strongest results are not listed here.
Sequences are the guide (antisense) strand, without overhang.

| strand | target gene | seed-corrected z-score |
|---|---|---|
| `AUCGGAAUACCUGUUGUCC` | KCNQ3 | 0.3853 |
| `UAACUCGAAAGACUAGAUC` | KBTBD3 | 0.4547 |
| `UUCUAUCUGACCAAUUGUC` | RNASET2 | -0.8061 |
| `UGAUGGUGUAGGACAGUUC` | IZUMO1R | 0.9747 |
| `UCUUGUAGAACUUGCUCUC` | CSNK1E | 0.4931 |
| `AAACGAUUUGUAGCACUAG` | METTL8 | 0.9554 |
| `UUGGUGGAUGUAGGAUUCG` | PRKCDBP | -0.1822 |
| `UAUCUCGCAGGACCUUACG` | HIST1H4E | 0.1356 |
| `UAUCAUAUUCAGGAGGUAG` | ZNF567 | 0.09795 |
| `UUCUGACUUUUGGUUGUCC` | CYP2C8 | -1.024 |
| `UCUUUCUCUUGGUCCCUGG` | RCE1 | -0.5089 |
| `UCCCGGAAAUCCUUGCUUC` | MPC1 | -0.03132 |
| `UAGGCGAUUGAUAUAUGCC` | ENTPD7 | -0.6826 |
| `UCUGUGAUCACCGCUACUG` | WAC | 0.143 |
| `UGCACUUUUUGGUUGUCUC` | GUSB | 0.6338 |
| `AAAGGCACUCCCAUGAUUU` | LINC01433 | 0.6403 |
| `UUUGGACUUAGACAGCUUG` | NOVA1 | 0.3349 |
| `AACCUUUGCAUGUUGUUCG` | CDR2 | 0.01605 |
| `UGGUGUUAGAGCUAGCUCG` | RALGDS | -0.7285 |
| `UCUUUAAGAAGGAAAGAUC` | EGFR | -0.4974 |
| `UUAGAUCUGAUGUAGGUAC` | RPN2 | -0.006391 |
| `AUAGUGCUUGUGGAACUCC` | BCOR | 0.8028 |
| `UAAGAGAUGAUAAUUACAG` | OR5M3 | 0.00892 |
| `AAAACGAUUCGCUUCUCCC` | FAM218A | -0.7147 |
| `UUCACAUACUUGUUAACCC` | TLCD1 | 0.4664 |
| `UUGUUCAUAAGCUGCAUUU` | LRIF1 | -0.01776 |
| `UAACCUGCGAACAGCCUCC` | LOC285697 | 1.798 |
| `UAAGUGGAUACAUGAAUUU` | SCARA5 | 0.4469 |
| `UUCGGUUGAAGAUGGGCAG` | ZDHHC1 | 0.04389 |
| `UUGUAGACCAUCAAACCUG` | CCDC150 | 0.6461 |
| `UGUCGUACUCGUCCUGCUC` | BCAR1 | -1.565 |
| `AAAUUACCAAGUACAUCUC` | FAM188B | 1.494 |
| `AGUUUUAGCUAUGCUAUCC` | RNF186 | 0.2142 |
| `UAUGGAACUCGUUCGCACA` | KCNA7 | 0.3739 |
| `UAUAAAGGCAGGAACAUAG` | SBSPON | -0.08794 |
| `UACGACUCCAUCACAGGCU` | C2orf72 | -0.1321 |
| `AGUCUGUCAAGAAUUCUCG` | GABRA2 | -0.8794 |
| `UCAAACUUAGUGGAAAUGC` | BCS1L | -0.2557 |
| `UUCCGAUUCGUCGCUCUCU` | POU5F2 | -0.6575 |
| `UAAGUCCCAUUUAUCCACC` | LOC441268 | 3.436 |
| `UAUUUGUUAGGUCUGCUAC` | MRFAP1 | 2.324 |
| `UAGAGAUCCAGAGCAAGUC` | KRTAP13-4 | -0.3256 |
| `UUAAUGUCGUAGGAGGUCU` | BOC | -0.6989 |
| `AUACCGAUAGAUGAUUUCC` | ALOX15 | -0.3489 |
| `UUUCUUAUUAUUAGUAAGG` | ZNF726P1 | -0.247 |
| `UAAGGCUUUUGAUUGAAGG` | DUXA | 0.08575 |
| `UCACCAUAACCAGAUAACC` | SLC28A3 | 0.1088 |
| `UGAAUAGUAGGAGCAAAGU` | NEGR1 | 0.1262 |
| `UCGCAUUCCUCUUUAAAGC` | TSTD2 | 0.09318 |